Source: PubChem BioAssay AID743255 (National Center for Advancing Translational Sciences (NCATS), 2014)
Out of some 390,000 compounds screened, about 910 (0.23%) were called active. Inconclusive means that the source gave no clear call. Such entries were picked first, then a sample of the others. Calls come from the whole dose curve; as a rule, active = well fitted inhibition curve with a large enough effect; inconclusive = small, poorly fitted or top-dose-only effect; inactive = no such curve, though single readings can be large or run the other way. Potencies beside an inconclusive call are fits to weak or partial responses and may not hold up.

Amino acid sequences for entries named in this document (tags omitted). A change or cut given only in a name is not applied to a line headed by its entry.
UniProt O94782: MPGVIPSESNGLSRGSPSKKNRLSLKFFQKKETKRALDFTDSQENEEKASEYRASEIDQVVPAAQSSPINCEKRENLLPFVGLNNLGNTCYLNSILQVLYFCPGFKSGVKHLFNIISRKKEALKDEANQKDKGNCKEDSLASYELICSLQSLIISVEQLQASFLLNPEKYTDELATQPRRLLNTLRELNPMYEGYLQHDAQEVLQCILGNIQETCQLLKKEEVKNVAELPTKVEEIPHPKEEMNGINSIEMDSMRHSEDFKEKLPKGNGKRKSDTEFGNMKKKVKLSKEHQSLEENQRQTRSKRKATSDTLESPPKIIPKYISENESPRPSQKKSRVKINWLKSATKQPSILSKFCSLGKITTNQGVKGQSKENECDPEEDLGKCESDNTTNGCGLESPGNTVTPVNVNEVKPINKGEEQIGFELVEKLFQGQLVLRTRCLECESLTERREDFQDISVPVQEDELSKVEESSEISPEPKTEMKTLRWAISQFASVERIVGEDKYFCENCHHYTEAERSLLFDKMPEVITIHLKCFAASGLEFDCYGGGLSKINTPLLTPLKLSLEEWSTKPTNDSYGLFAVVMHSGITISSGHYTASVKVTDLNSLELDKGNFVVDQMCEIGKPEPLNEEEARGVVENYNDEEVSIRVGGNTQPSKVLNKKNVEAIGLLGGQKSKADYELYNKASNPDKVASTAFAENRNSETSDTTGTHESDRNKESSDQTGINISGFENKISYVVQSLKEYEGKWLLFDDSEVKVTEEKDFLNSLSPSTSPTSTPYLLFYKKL

Biological target: Ubiquitin carboxyl-terminal hydrolase 1 (Homo sapiens) (UniProt O94782)
Assay: Inhibitors of USP1/UAF1: Primary Screen; note: nearly all actives have a fitted effect of over 60% in size
Settings: recombinant USP1/UAF1, Ub-Rhodamine cleavage fluorescence; activity change, negative = inhibition: at 57.1 µM (top of the series)
Procedure, shortened: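 1 nM enzyme complex + cpd, 15 min RT; start with Ub-Rho 150nM final; kinetic fluorescence ex 480/em 540, 6 reads q60 s. Buffer 50mM HEPES pH 7.8, 0.5mM EDTA, 0.1 mg/ml BSA, 1mM TCEP, 0.01% Tween-20.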
% is set by controls: 0 for no effect and ±100 for the full control effect; potency is the fitted concentration of half-maximal effect.

| SMILES | activity change, negative = inhibition | Potency |
| --- | --- | --- |
| CCOCCCn1c(SCC(=O)OCC)nc2c(sc3ccccc32)c1=O | inactive: -25.2% | – |
| COCCNC(=O)CSc1nc(-c2cc(OC)c(OC)c(OC)c2)[nH]c1-c1ccc(Cl)cc1 | – | inconclusive: 0.141 µM [inhibitor, full curve, poor fit] |
| CC(=O)c1ccc(NC(=O)c2ccc3c(c2)C(=O)N(c2ccccn2)C3=O)cc1 | – | inconclusive: 31.6 µM [inhibitor, partial curve] |
| CC(=O)c1cc2c(cc1F)C(C)(C)CCC2(C)C | – | inconclusive: 4.47 µM [inhibitor, full curve, poor fit] |
| Cc1ccc(Nc2nnc(-c3ccc(C)c(S(=O)(=O)N4CCN(C)CC4)c3)c3ccccc23)cc1 | – | inconclusive: 0.631 µM [inhibitor, full curve, poor fit] |
| Cc1ccccc1CNc1ccc(C(CC(N)=O)NC(=O)c2ccccc2)cc1[N+](=O)[O-] (centres undefined) | – | inconclusive: 44.7 µM [inhibitor, partial curve] |
| COc1cc(NC(=O)CN2c3ccccc3S(=O)(=O)c3ccccc32)cc(OC)c1 | inactive: -19.7% | – |
| CCS(=O)(=O)c1nn2c(N)c(/C=C3/C=CC(=O)C(OC)=C3)c(=O)nc2s1 | – | inconclusive: 39.8 µM [inhibitor, partial curve] |
| O=C(O)CCCCn1c(SCC(=O)Nc2ccccc2C(F)(F)F)nc2ccsc2c1=O | – | inconclusive: 0.141 µM [inhibitor, full curve, poor fit] |
| CCOC(=O)c1nnn(-c2nonc2N)c1CSc1nnc(N)s1 | inactive: -20.8% | – |
| COc1ccc(/C(C)=N/NC(=O)CNC(=O)c2cccnc2)cc1 | – | inconclusive: 50.1 µM [inhibitor, partial curve, poor fit] |
| COc1ccc(-c2cc(C)no2)cc1S(=O)(=O)N1CCc2ccccc21 | – | inconclusive: 5.62 µM [inhibitor, partial curve, poor fit] |
| Cn1c(=O)c2c(SCC(=O)Nc3ccccc3C(F)(F)F)nc(C3CCCC3)nc2n(C)c1=O | inactive: -14.8% | – |
| O=S(=O)(c1ccccc1)c1nnn2c1nc(NC1CCCCC1)c1sccc12 | – | inconclusive: 89.1 µM [inhibitor, partial curve, poor fit] |
| CCc1cc(C(=O)N2CCN(S(=O)(=O)c3cc(C)ccc3C)CC2)sc1C | – | inconclusive: 50.1 µM [inhibitor, partial curve, poor fit] |
| CC(=O)c1cccc(NC(=O)c2nc(-c3ccccc3)n(-c3cccc(Cl)c3)n2)c1 | – | inconclusive: 35.5 µM [inhibitor, partial curve] |
| COC(=O)CCCC1=CC2=C(c3ccccc3)C(=O)C(C)(OC(=O)C3CCCC3)C(=O)C2=CN1C(CO)CO (centres undefined) | – | inconclusive: 31.6 µM [inhibitor, partial curve, poor fit] |
| Cc1ccc(NC(=O)CSc2nc(=O)n(CCN3CCOCC3)c3c2CCC3)c(C)c1 | – | inconclusive: 22.4 µM [inhibitor, partial curve] |
| Cc1cccc(N/N=C/c2ccncc2)c1 | inactive: -12.5% | – |
| CCOc1ccccc1CNc1ccc2cc(S(=O)(=O)N3CCC(C)CC3)ccc2n1 | – | inconclusive: 1.26 µM [inhibitor, full curve, poor fit] |

| SMILES | activity change, negative = inhibition | Potency |
| --- | --- | --- |
| COc1cc(OC)cc(-c2c(C#Cc3ccsc3)c3cc(-c4ccc5cc[nH]c5c4)ccc3n2C)c1 | – | inconclusive: 7.08 µM [inhibitor, full curve, poor fit] |
| Cc1cc(O)cc(O[C@H]2OC(CO)[C@H](O)[C@@H](O)[C@H]2O)c1 (some centres undefined) | – | inconclusive: 44.7 µM [inhibitor, partial curve, poor fit] |
| CC1(C)C(=O)N(CC(=O)Nc2cccc(F)c2)c2ccc(S(=O)(=O)N3CCCCC3)cc21 | – | inconclusive: 15.8 µM [inhibitor, partial curve, poor fit] |
| O=C1C2C3C=CC(C3)C2C(=O)N1c1ccc(N2CCN(c3ccccn3)CC2)c([N+](=O)[O-])c1 (centres undefined) | – | inconclusive: 35.5 µM [inhibitor, partial curve] |
| O=C(NCc1ccco1)C1CC(=O)N(c2ccc(O)cc2)C1 (centres undefined) | inactive: -12.6% | – |
| COc1ccc(-c2cc(C(=O)O)c3sc(N4CCCCC4)nc3n2)cc1OC | – | inconclusive: 44.7 µM [inhibitor, partial curve, poor fit] |
| CC(C)NC(=O)CN1C(=O)C(C)(C)Oc2ccc(C(=O)NC3CCCCC3)cc21 | – | inconclusive: 5.62 µM [inhibitor, single point] |
| CCOc1ccc(NC(=O)Cn2c(=O)n(-c3ccccc3)c(=O)c3ccc(C(=O)NCc4ccc5c(c4)OCO5)cc32)cc1 | inactive: -9.64% | – |
| COc1ccc(NC(=O)C2CCN(S(=O)(=O)c3ccc4[nH]c5c(c4c3)CCCCC5)CC2)cc1 | – | inconclusive: 0.1 µM [inhibitor, full curve, poor fit] |
| CC(C)CCN1C(=O)c2ccccc2CC1(C)C(=O)NC1CCC(C)CC1 (centres undefined) | inactive: -20.9% | – |
| Cn1c(=O)[nH]c2nc[nH]c2c1=O | – | inconclusive: 8.91 µM [inhibitor, partial curve, poor fit] |
| Cc1cccc(C(=O)NNC(=O)c2ccc(F)cc2)c1 | inactive: -6.31% | – |
| CC(C)Cn1c2c(c(O)c(C(=O)Nc3ncccc3O)c1=O)CCCC2 | inactive: -19.5% | – |
| O=C(N/N=C/c1ccc(F)cc1)c1ccccc1 | inactive: -25.5% | – |
| Nn1cnnc1N/N=C/c1ccc(F)cc1 | – | inconclusive: 50.1 µM [inhibitor, partial curve, poor fit] |
| COc1cc2oc(=O)cc(-c3ccc(-c4ccc(F)c(Cl)c4)cc3)c2c(OC)c1OC | – | inconclusive: 35.5 µM [inhibitor, partial curve] |
| CCOC(=O)N1CCN(C(=O)c2ccc(CSc3ccc(Cl)cc3)cc2)CC1 | – | inconclusive: 28.2 µM [inhibitor, partial curve, poor fit] |
| C=C(C)c1sc(-c2ccccc2)nc1C | – | inconclusive: 56.2 µM [inhibitor, partial curve, poor fit] |
| CN(NS(=O)(=O)c1ccccc1)C(=O)c1ccccc1 | – | inconclusive: 50.1 µM [inhibitor, partial curve, poor fit] |

Entries of single compounds as entered above. Order of values: activity change, negative = inhibition	Potency
CN(NS(=O)(=O)c1ccccc1)C(=O)c1ccccc1 in the list: –	inconclusive: 50.1 µM [inhibitor, partial curve, poor fit]
CC1(C)C(=O)N(CC(=O)Nc2cccc(F)c2)c2ccc(S(=O)(=O)N3CCCCC3)cc21 in the list: –	inconclusive: 15.8 µM [inhibitor, partial curve, poor fit]
